Source: patent US20200140566A1 (CLEVELAND CLINIC FOUNDATION, published 2020)
Where a chain is given by its changes, count along the chain named. Results are given in words; binding and its absence hold for the method and conditions named. Some results given as binding are weak or reduced against the parent protein; the word gives no strength. For some of these results: Tags and fused reporters may be left off the sequences shown. Values belong to the binder of their own block, whether it stands above or below them.

What was measured:
CD6 on Jurkat cells [1] = target: T1, CD6 on Jurkat cells (human, UniProt P30203 18-668); test: flow cytometry on Jurkat cells, Fab culture supernatant
T1 construct: whole, on cells; the target is inferred from the antibodies' specificity
T1 sequence (looked up): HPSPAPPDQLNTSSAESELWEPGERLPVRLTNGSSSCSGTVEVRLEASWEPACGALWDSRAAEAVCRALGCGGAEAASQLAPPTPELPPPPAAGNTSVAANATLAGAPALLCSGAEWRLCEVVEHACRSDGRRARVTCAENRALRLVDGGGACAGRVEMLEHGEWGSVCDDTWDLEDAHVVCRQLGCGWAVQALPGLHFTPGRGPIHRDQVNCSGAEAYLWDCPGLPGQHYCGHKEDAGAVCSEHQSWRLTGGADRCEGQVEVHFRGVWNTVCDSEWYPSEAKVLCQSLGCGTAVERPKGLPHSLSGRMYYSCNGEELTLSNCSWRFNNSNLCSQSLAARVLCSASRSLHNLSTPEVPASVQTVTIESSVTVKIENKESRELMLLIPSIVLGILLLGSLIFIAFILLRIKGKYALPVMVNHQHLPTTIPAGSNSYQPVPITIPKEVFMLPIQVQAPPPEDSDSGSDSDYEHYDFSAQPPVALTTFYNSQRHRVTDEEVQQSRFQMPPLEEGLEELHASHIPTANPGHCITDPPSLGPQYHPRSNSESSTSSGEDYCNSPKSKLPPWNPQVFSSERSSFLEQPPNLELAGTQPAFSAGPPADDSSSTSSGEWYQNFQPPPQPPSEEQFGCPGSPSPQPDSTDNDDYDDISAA

rhCD6-Fc [2] = target: T2, rhCD6-Fc (human, UniProt P30203 25-398, limits assumed); test: SPR single cycle kinetics, secreted Fab captured, rhCD6-Fc injected
T2 construct: also called rhCD6-Fc chimera; antigen rhCD6-Fc; not shown: Fc part
T2 sequence (looked up): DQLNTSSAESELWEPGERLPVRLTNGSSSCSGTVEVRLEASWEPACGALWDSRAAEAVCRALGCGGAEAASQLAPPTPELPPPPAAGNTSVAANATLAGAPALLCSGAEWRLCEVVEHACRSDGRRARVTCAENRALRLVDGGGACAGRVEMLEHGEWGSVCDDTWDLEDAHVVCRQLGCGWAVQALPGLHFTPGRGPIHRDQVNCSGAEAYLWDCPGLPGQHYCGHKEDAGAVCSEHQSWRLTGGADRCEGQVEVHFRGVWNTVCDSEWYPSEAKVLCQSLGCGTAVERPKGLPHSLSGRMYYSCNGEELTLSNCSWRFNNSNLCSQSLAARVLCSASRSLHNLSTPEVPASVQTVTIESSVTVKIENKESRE

rhCD6-Fc [3] = target: T2, rhCD6-Fc; test: SPR single cycle kinetics, secreted Fab-SASA captured, rhCD6-Fc injected
CD6 on Jurkat cells [4] = target: T1, CD6 on Jurkat cells; test: flow cytometry on Jurkat cells, Fab culture supernatant; controls: TG1 supernatant and PBS
CD6 on Jurkat cells [5] = target: T1, CD6 on Jurkat cells; test: flow cytometry on Jurkat cells, Fab culture supernatant; controls: TG1 supernatant and PBS; FL2 height
rhCD6-Fc [6] = target: T2, rhCD6-Fc; test: SPR single cycle kinetics (BIAcore T200): Fab-SASA captured on immobilised BSA, rhCD6-Fc at 1, 3, 9, 27 and 81 nM, 3000 s dissociation, 1:1 fit
rhCD6-Fc [7] = target: T2, rhCD6-Fc; test: SPR off-rate ranking (BIAcore T200): Fab-SASA from culture medium captured on immobilised BSA, rhCD6-Fc injected, dissociation phase, response normalised
rhCD6-Fc [8] = target: T2, rhCD6-Fc; test: conclusion of Example 2 (SPR on rhCD6-Fc)
CD6 on Jurkat cells [9] = target: T1, CD6 on Jurkat cells; test: flow cytometry on Jurkat cells, purified IgG
rhCD6-Fc [10] = target: T2, rhCD6-Fc; test: SPR (BIAcore T200), rhCD6-Fc immobilised, IgG injected
rhCD6-Fc [11] = target: T2, rhCD6-Fc; test: SPR (BIAcore T200): rhCD6-Fc immobilised on CM5, IgG injected at 0.11-27 nM, 700 s association, 3600 s dissociation, 1:1 fit

- binding (rhCD6-Fc [8]): binds
- binding (CD6 on Jurkat cells [9]): binds
- binding (rhCD6-Fc [10]): binds
- binding (rhCD6-Fc [11]): binds
B3: Humanized IgG4 (from Fab4) (antibody, V domains shown)
VH: QVQLQESGPGLVKPSETLSLTCTVSGFSISRYSVHWIRQPPGKGLEWIGLIWGGGFTDYNSALKSRVTISKDNSKNQVSLKLSSVTAADTAVYYCAREGVAYWGQGTLVTVSS
VL: DVVMTQSPLSLPVTLGQPASISCKSSQSLLNSDGRTYLNWFQQRPGQSPRRLIYLVSKLDSGVPDRFSGSGSGTDFTLKISRVEAEDVGVYYCWQGTHFPFTFGPGTKVDIKR
notes: VH4-hIgG1CH and VL-hIgKCL (human IgG1 / kappa; 'IgG4' is the clone number, not the isotype)

- binding (rhCD6-Fc [8]): binds
- binding (CD6 on Jurkat cells [9]): binds
- binding (rhCD6-Fc [10]): binds
- binding (rhCD6-Fc [11]): binds
B5: Humanized IgG2 (from Fab2) (antibody, V domains shown)
VH: B3 VH with I29L, I37V, I48L, V67L
VL: B3 VL
notes: VH2-hIgG1CH and VL-hIgKCL (human IgG1 / kappa)

- binding (CD6 on Jurkat cells [1]): binds
- binding (CD6 on Jurkat cells [4]): binds
B7: Fab7 (Fab, V domains shown)
VH: B3 VH with F27G, I37V, I48L, V67L, K71V, N73T, V78F
VL: DVVMTQSPLSLPVTLGQPASISCKSSQSLLNSDGRTYLNWFQQRPGQSPRRLIYLVSKLDSGVPDRFSGSGSGTDFTLKISRVEAEDVGVYYCWQGTHFPFTFGPGTKVDIK
notes: Tested as Fab-SASA secreted into culture medium; also called back-mutation 7

The next lines start with the binder.

B1: Fab2 (Fab, V domains shown)
VH: B3 VH with I29L, I37V, I48L, V67L
VL: B7 VL
notes: Tested as Fab-SASA secreted into culture medium (pFASEBA vector); also called back-mutation 2; Fab2 clone from CDR grafting
- binding (CD6 on Jurkat cells [1]): binds
- binding (rhCD6-Fc [2]): binds
- binding (rhCD6-Fc [3]): binds
- binding (CD6 on Jurkat cells [4]): binds
- binding (CD6 on Jurkat cells [5]): binds
- binding (rhCD6-Fc [6]): binds
- binding (rhCD6-Fc [7]): binds

B2: Humanized IgG6 (from Fab6) (antibody, V domains shown)
VH: B3 VH with I29L
VL: B3 VL
notes: Human IgG1 / kappa
- binding (rhCD6-Fc [8]): binds
- binding (CD6 on Jurkat cells [9]): binds
- binding (rhCD6-Fc [10]): binds
- binding (rhCD6-Fc [11]): binds

B4: Fab4 (Fab, V domains shown)
VH: B3 VH
VL: B7 VL
notes: Tested as Fab-SASA secreted into culture medium; also called back-mutation 4
- binding (CD6 on Jurkat cells [1]): binds
- binding (CD6 on Jurkat cells [4]): binds

B6: Fab5 (Fab, V domains shown)
VH: B3 VH with F27G, I29L, I37V, I48L, V67L, K71V, N73T, V78F
VL: B7 VL
notes: Tested as Fab-SASA secreted into culture medium; also called Fab5 R; back-mutation 5
- binding (CD6 on Jurkat cells [1]): binds
- binding (CD6 on Jurkat cells [4]): binds
